Results taken from paper PMC10392983.
No constants are given. Whether binding was seen depends on the method and setting. Some entries that bind do so weakly or less than the wild type.

The chains behind the UniProt entries cited, without tags or fusion partners.
UniProt P48736: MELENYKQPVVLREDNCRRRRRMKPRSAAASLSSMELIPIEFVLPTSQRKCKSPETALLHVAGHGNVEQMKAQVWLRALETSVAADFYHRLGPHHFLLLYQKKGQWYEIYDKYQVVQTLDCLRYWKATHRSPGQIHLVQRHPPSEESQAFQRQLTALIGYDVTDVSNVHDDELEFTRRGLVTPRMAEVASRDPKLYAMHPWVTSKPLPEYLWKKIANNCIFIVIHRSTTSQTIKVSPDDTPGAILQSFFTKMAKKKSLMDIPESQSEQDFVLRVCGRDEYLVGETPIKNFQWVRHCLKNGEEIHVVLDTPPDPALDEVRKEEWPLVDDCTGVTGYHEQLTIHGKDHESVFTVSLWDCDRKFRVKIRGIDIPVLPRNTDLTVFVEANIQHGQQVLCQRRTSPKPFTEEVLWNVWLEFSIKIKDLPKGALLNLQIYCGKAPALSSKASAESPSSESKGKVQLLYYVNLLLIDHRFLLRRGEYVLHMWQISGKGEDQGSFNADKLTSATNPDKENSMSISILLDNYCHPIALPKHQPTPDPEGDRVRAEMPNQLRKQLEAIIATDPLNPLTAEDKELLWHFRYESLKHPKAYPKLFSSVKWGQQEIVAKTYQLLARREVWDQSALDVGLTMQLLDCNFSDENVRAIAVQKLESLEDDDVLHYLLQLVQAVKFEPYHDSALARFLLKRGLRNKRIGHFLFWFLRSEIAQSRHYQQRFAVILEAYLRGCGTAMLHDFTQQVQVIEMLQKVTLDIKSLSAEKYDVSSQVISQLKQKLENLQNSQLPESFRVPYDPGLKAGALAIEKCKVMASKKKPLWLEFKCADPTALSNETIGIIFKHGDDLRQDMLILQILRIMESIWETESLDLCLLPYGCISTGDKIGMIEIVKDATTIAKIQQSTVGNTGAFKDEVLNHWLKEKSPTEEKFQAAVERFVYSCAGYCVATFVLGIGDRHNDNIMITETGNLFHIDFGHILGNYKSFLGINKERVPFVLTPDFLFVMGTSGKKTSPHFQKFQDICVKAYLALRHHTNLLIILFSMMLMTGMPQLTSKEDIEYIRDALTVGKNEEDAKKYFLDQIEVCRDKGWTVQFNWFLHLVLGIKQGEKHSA

How the values were obtained:
[1] = target: T1, p84 regulatory subunit of PI3Kγ (mouse) (UniProt Q3U6Q4); assay: co-purification (nickel affinity, streptavidin affinity, size-exclusion chromatography); co-expression in Sf9; His10-2x Strep tag on p84 or p101 only; p110γ untagged
T1 sequence: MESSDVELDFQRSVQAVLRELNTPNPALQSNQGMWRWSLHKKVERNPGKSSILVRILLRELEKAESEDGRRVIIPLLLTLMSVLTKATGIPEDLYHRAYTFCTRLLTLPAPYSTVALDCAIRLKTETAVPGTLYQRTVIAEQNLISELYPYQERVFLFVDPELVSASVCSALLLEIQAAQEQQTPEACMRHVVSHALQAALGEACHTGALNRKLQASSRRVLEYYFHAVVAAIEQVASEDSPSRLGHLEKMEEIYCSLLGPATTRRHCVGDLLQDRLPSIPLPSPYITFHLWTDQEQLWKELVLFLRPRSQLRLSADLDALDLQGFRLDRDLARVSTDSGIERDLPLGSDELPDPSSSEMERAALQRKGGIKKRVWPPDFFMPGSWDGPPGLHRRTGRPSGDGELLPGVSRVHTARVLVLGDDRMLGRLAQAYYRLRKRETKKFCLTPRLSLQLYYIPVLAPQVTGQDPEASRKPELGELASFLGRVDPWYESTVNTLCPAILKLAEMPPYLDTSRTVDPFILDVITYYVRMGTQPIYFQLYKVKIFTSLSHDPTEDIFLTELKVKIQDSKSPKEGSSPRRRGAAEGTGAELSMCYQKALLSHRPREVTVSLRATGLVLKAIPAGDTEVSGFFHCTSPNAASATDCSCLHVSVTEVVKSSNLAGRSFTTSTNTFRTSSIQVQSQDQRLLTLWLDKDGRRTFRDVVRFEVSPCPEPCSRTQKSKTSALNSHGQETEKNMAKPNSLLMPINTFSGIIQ

[2] = target: T2, p101 regulatory subunit of PI3Kγ (Sus scrofa (porcine)) (UniProt O02696); assay: as above
T2 sequence: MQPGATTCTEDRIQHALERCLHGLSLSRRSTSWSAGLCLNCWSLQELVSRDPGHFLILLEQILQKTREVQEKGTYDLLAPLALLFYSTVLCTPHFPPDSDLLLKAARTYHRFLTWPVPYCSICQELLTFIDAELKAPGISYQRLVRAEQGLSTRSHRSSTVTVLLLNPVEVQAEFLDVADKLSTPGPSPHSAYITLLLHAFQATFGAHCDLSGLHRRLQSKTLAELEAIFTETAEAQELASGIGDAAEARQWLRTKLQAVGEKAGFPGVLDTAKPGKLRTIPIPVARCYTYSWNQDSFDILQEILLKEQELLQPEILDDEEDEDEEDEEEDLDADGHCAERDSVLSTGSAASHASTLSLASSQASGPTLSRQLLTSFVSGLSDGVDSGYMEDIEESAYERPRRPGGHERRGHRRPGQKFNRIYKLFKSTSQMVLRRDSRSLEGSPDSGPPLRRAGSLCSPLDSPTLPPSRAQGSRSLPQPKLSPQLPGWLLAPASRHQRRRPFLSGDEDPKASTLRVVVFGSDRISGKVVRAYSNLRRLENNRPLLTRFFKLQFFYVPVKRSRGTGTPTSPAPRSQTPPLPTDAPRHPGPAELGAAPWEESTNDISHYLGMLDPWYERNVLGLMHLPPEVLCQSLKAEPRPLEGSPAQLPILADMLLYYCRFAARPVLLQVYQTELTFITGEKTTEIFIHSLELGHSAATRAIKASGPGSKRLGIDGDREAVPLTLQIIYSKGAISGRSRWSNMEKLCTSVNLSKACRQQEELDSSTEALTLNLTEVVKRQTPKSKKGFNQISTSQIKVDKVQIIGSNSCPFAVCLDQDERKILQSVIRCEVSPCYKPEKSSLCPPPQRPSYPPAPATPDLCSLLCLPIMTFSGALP

binding [1]: binds
binding [2]: binds
Substance: p110γ, untagged, co-expressed with a tagged regulatory subunit (from UniProt P48736 1-1102) (enzyme)
